Assay results: US11498853B2, “Water with switchable ionic strength” (QUEEN'S UNIVERSITY AT KINGSTON, priority 2010, dated 2022)
Some of these results come from one statement about several compounds together.

Assay: Degree of protonation/deprotonation of amine additives in D2O by 1H NMR
Conditions: Example 6, heating and N2

SMILES: OCCN(CCO)CCN(CCO)CCO [THEED, N, N, N′, N′-tetrakis(2-hydroxyethyl) ethylenediamine]
- ionic form converted back to non-ionic form: > 90%
